Measurements reported in PubChem BioAssay AID493246 (Drosophila RNAi Screening Center, 2011)

- Screen: 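Genome-wide search for dsRNAs that reduce cell number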 (primary screen)
- Cell system: Drosophila Kc and S2R+ cells
- Reagents: long dsRNA against Drosophila genes
- Measurement: 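Raw, unnormalised count of remaining cells in each well; per-plate z-scores of cell number underlie the calls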
- Scale: Kc cell number and S2R+ cell number: higher = more cells remaining
- Rule for the call: 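Counted as a hit if cell number falls by a z-score of at least 3 within its plate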
The screen tested about 21,000 reagents; shown is a random part of those that have a named target and a result. In the full data, 429 (2%) were called active. 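Values are raw and not normalised between plates; calls rest on per-plate z-scores that were not deposited.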 Reagents against one gene are numbered here. Reagent sequences are not shown. Not given: the amount of reagent, the time to read-out.

{"Target gene": "CG10444", "reagent no.": 1, "Kc cell number, rep 1": 1.35e6, "Kc cell number, rep 2": 1.39e6, "S2R+ cell number, rep 1": 1.16e6, "S2R+ cell number, rep 2": 1.20e6, "outcome": "inactive"}
{"Target gene": "CG8641", "reagent no.": 1, "Kc cell number, rep 1": 1.31e6, "Kc cell number, rep 2": 1.22e6, "S2R+ cell number, rep 1": 1.25e6, "S2R+ cell number, rep 2": 1.22e6, "outcome": "inactive"}
{"Target gene": "Pp1alpha-96A (Protein phosphatase 1alpha at 96A)", "reagent no.": 1, "Kc cell number, rep 1": 1.70e6, "Kc cell number, rep 2": 1.67e6, "S2R+ cell number, rep 1": 1.13e6, "S2R+ cell number, rep 2": 1.16e6, "outcome": "inactive"}
{"Target gene": "PGRP-SB2 (Peptidoglycan recognition protein SB2)", "reagent no.": 1, "Kc cell number, rep 1": 1.64e6, "Kc cell number, rep 2": 1.83e6, "S2R+ cell number, rep 1": 1.32e6, "S2R+ cell number, rep 2": 1.42e6, "outcome": "inactive"}
{"Target gene": "l(1)G0196 (lethal (1) G0196)", "reagent no.": 1, "Kc cell number, rep 1": 1.34e6, "Kc cell number, rep 2": 1.46e6, "S2R+ cell number, rep 1": 1.09e6, "S2R+ cell number, rep 2": 1.11e6, "outcome": "inactive"}
{"Target gene": "l(1)G0196 (lethal (1) G0196)", "reagent no.": 2, "Kc cell number, rep 1": 1.47e6, "Kc cell number, rep 2": 1.49e6, "S2R+ cell number, rep 1": 1.06e6, "S2R+ cell number, rep 2": 1.17e6, "outcome": "inactive"}
{"Target gene": "l(1)G0196 (lethal (1) G0196)", "reagent no.": 3, "Kc cell number, rep 1": 1.70e6, "Kc cell number, rep 2": 1.73e6, "S2R+ cell number, rep 1": 1.09e6, "S2R+ cell number, rep 2": 1.29e6, "outcome": "inactive"}
{"Target gene": "Acph-1 (Acid phosphatase 1)", "reagent no.": 1, "Kc cell number, rep 1": 1.44e6, "Kc cell number, rep 2": 1.49e6, "S2R+ cell number, rep 1": 1.00e6, "S2R+ cell number, rep 2": 1.19e6, "outcome": "inactive"}
{"Target gene": "CG4627", "reagent no.": 1, "Kc cell number, rep 1": 1.59e6, "Kc cell number, rep 2": 1.59e6, "S2R+ cell number, rep 1": 1.25e6, "S2R+ cell number, rep 2": 1.32e6, "outcome": "inactive"}
{"Target gene": "oys (oysgedart)", "reagent no.": 1, "Kc cell number, rep 1": 1.46e6, "Kc cell number, rep 2": 1.57e6, "S2R+ cell number, rep 1": 7.70e5, "S2R+ cell number, rep 2": 9.23e5, "outcome": "inactive"}
{"Target gene": "oys (oysgedart)", "reagent no.": 2, "Kc cell number, rep 1": 1.27e6, "Kc cell number, rep 2": 1.32e6, "S2R+ cell number, rep 1": 1.10e6, "S2R+ cell number, rep 2": 1.19e6, "outcome": "inactive"}
{"Target gene": "CG5388", "reagent no.": 1, "Kc cell number, rep 1": 1.33e6, "Kc cell number, rep 2": 1.48e6, "S2R+ cell number, rep 1": 1.10e6, "S2R+ cell number, rep 2": 1.11e6, "outcome": "inactive"}
{"Target gene": "CG15336", "reagent no.": 1, "Kc cell number, rep 1": 1.54e6, "Kc cell number, rep 2": 1.54e6, "S2R+ cell number, rep 1": 1.09e6, "S2R+ cell number, rep 2": 1.18e6, "outcome": "inactive"}
{"Target gene": "CG3701 (retired record)", "reagent no.": 1, "Kc cell number, rep 1": 1.63e6, "Kc cell number, rep 2": 1.67e6, "S2R+ cell number, rep 1": 1.34e6, "S2R+ cell number, rep 2": 1.35e6, "outcome": "inactive"}
{"Target gene": "CG3701 (retired record)", "reagent no.": 2, "Kc cell number, rep 1": 1.67e6, "Kc cell number, rep 2": 1.63e6, "S2R+ cell number, rep 1": 1.29e6, "S2R+ cell number, rep 2": 1.33e6, "outcome": "inactive"}
{"Target gene": "Daxx (Daxx-like protein)", "reagent no.": 1, "Kc cell number, rep 1": 1.19e6, "Kc cell number, rep 2": 1.46e6, "S2R+ cell number, rep 1": 2.38e5, "S2R+ cell number, rep 2": 1.45e5, "outcome": "inactive"}
{"Target gene": "CG9304", "reagent no.": 1, "Kc cell number, rep 1": 1.38e6, "Kc cell number, rep 2": 1.50e6, "S2R+ cell number, rep 1": 1.27e6, "S2R+ cell number, rep 2": 4.43e5, "outcome": "inactive"}
{"Target gene": "Polr2H (RNA polymerase II, I and III subunit H)", "reagent no.": 1, "Kc cell number, rep 1": 1.65e6, "Kc cell number, rep 2": 1.77e6, "S2R+ cell number, rep 1": 9.99e5, "S2R+ cell number, rep 2": 1.03e6, "outcome": "inactive"}
{"Target gene": "Osi17 (Osiris 17)", "reagent no.": 1, "Kc cell number, rep 1": 1.74e6, "Kc cell number, rep 2": 1.94e6, "S2R+ cell number, rep 1": 1.34e6, "S2R+ cell number, rep 2": 1.61e6, "outcome": "inactive"}
{"Target gene": "CG32040", "reagent no.": 1, "Kc cell number, rep 1": 1.50e6, "Kc cell number, rep 2": 1.56e6, "S2R+ cell number, rep 1": 1.19e6, "S2R+ cell number, rep 2": 1.31e6, "outcome": "inactive"}
{"Target gene": "Or9a (Odorant receptor 9a)", "reagent no.": 1, "Kc cell number, rep 1": 1.53e6, "Kc cell number, rep 2": 1.51e6, "S2R+ cell number, rep 1": 9.85e5, "S2R+ cell number, rep 2": 1.11e6, "outcome": "inactive"}
